Results taken from the supplement of paper PMC10849652.
Some of the results follow.

By UniProt entry, the sequences of proteins in these tests, tags left out. Where a name states a change or a piece, a line headed by the entry shows the natural chain unless it says otherwise.
UniProt Q16850: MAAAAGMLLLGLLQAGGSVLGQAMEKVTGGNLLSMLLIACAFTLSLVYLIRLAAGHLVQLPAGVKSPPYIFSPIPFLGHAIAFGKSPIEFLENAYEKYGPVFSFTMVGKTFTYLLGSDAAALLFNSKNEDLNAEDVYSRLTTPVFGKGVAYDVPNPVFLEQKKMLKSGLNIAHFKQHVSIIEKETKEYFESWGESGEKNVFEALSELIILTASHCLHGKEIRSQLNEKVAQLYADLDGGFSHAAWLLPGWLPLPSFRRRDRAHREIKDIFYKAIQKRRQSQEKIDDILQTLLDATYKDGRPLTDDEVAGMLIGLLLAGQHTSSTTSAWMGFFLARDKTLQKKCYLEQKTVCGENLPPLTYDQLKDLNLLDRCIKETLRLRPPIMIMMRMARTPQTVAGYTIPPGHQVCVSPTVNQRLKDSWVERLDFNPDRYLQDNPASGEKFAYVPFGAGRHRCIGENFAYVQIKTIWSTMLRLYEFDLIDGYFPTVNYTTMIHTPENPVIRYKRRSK
UniProt Q9NUL7: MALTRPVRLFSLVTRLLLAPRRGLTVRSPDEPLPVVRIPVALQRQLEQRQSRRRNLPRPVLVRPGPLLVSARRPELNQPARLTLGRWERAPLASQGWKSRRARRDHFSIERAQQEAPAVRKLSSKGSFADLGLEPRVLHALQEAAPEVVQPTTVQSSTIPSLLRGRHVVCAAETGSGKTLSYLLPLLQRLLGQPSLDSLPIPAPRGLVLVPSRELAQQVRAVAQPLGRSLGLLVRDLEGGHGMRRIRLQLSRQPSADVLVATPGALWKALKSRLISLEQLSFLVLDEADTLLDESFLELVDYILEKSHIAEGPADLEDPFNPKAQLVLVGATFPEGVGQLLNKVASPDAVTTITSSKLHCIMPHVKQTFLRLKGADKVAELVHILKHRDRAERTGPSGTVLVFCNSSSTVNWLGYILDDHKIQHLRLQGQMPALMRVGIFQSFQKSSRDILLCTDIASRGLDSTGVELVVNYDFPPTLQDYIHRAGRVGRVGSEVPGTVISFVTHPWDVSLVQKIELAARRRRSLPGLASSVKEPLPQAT
UniProt O94760: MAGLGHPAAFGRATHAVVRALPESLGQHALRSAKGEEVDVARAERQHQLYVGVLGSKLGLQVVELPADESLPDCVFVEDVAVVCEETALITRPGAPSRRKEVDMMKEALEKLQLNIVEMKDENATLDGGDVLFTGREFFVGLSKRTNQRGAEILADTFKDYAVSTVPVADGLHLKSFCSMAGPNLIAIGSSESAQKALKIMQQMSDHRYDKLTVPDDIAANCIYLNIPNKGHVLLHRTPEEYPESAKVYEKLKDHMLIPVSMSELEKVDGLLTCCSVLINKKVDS
UniProt Q96FC9: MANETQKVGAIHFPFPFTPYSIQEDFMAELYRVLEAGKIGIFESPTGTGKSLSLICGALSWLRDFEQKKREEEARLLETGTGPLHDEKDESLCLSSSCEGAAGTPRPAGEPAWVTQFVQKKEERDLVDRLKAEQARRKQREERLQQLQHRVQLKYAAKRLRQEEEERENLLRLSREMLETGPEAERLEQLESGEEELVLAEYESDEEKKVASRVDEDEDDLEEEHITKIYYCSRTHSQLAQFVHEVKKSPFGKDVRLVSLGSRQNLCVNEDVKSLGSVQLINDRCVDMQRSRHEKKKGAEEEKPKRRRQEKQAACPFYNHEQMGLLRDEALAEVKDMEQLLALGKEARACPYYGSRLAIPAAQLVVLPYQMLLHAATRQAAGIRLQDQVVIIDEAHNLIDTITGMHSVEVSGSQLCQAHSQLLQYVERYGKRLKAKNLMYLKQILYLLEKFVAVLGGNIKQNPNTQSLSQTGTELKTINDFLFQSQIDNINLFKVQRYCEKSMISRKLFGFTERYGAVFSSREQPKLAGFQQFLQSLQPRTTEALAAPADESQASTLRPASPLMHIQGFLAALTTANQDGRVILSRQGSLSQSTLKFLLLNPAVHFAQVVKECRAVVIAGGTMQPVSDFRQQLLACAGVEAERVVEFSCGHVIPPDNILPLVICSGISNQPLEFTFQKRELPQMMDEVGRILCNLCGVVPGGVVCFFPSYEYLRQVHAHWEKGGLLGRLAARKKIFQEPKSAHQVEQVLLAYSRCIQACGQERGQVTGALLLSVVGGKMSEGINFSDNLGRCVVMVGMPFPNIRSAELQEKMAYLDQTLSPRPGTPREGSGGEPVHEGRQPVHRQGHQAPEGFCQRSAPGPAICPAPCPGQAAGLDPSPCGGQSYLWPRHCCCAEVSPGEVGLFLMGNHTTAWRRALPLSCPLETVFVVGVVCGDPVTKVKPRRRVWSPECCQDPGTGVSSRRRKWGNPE
UniProt O43739: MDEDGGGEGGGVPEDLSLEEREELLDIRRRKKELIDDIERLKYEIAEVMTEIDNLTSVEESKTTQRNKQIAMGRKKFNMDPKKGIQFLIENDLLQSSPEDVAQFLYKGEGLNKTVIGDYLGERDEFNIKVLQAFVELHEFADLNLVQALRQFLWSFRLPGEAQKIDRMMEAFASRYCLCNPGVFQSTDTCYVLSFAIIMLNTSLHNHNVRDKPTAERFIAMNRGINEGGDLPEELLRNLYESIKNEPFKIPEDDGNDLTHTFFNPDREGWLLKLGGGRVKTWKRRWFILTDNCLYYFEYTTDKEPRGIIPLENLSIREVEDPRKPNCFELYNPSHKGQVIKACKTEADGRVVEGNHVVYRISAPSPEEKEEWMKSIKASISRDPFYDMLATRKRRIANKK
UniProt Q9Y4D1, whole entry, looked up: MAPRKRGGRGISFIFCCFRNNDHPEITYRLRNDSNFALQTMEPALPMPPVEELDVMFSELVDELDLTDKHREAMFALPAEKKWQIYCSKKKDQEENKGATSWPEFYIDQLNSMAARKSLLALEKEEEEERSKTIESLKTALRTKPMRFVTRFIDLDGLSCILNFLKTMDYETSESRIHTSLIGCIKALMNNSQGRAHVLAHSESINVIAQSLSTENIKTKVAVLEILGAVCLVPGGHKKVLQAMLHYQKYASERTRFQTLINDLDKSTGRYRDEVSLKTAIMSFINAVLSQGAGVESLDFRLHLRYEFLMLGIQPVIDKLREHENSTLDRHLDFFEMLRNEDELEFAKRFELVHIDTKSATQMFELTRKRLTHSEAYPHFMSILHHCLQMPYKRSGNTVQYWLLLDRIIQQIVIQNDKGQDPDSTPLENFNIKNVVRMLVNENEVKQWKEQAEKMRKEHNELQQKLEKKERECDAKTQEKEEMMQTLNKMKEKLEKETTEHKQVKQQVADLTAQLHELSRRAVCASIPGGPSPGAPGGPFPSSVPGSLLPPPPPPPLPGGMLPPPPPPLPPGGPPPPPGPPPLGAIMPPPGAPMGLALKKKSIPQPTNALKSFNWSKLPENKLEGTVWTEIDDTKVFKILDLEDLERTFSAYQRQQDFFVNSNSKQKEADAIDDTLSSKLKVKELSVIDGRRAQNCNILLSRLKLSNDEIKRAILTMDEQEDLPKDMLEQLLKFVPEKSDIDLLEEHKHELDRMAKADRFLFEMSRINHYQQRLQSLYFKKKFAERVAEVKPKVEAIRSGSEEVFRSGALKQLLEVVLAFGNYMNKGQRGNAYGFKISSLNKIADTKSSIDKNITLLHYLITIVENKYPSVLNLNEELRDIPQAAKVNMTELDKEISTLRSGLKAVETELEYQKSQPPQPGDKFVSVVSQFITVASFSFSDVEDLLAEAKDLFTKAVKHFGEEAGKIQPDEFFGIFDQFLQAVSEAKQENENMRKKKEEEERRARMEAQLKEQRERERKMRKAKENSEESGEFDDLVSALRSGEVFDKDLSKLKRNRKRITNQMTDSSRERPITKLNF
UniProt Q5D0E6: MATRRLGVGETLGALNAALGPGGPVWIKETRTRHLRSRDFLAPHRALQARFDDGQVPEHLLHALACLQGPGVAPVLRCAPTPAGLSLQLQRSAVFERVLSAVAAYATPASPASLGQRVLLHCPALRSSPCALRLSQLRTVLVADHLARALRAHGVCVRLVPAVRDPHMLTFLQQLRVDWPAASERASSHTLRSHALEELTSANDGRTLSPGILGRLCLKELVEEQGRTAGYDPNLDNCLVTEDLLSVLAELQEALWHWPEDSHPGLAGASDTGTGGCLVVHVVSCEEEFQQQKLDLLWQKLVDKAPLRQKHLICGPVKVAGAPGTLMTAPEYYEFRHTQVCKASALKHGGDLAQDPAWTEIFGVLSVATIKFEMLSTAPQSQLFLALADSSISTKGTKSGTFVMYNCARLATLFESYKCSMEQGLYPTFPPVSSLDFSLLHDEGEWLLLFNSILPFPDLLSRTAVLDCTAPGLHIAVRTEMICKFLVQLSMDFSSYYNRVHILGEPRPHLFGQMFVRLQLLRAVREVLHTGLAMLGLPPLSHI
UniProt O00273: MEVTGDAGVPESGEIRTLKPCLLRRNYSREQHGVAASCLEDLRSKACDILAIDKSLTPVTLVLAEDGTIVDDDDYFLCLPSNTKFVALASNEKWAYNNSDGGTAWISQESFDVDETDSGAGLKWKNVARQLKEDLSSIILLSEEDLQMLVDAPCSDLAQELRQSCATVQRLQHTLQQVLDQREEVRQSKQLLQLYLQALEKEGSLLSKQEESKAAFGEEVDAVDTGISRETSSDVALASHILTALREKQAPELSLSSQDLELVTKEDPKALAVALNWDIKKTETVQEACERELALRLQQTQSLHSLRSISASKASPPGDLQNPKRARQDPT
UniProt Q8N8A6: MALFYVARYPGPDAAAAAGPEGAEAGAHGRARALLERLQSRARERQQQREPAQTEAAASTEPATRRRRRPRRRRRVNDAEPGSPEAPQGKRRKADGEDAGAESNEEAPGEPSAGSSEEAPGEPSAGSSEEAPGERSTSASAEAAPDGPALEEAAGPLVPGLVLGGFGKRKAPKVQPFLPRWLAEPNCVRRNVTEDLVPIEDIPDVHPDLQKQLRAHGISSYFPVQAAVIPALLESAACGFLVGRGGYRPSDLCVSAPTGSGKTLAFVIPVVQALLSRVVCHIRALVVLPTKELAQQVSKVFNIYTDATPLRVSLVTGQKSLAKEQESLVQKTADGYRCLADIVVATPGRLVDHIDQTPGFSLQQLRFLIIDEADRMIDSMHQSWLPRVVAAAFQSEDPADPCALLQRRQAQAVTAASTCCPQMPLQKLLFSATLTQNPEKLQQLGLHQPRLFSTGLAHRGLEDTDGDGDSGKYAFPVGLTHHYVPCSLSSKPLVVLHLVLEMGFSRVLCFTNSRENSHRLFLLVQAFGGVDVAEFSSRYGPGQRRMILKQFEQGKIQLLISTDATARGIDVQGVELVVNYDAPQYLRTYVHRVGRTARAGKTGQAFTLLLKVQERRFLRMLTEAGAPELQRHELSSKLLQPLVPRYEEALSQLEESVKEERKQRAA
UniProt Q6ICB0: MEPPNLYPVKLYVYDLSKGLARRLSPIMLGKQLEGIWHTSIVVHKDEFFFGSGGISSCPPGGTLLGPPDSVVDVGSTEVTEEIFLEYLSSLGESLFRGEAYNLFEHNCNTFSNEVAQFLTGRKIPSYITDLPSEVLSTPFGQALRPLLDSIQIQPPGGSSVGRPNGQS
UniProt O15121: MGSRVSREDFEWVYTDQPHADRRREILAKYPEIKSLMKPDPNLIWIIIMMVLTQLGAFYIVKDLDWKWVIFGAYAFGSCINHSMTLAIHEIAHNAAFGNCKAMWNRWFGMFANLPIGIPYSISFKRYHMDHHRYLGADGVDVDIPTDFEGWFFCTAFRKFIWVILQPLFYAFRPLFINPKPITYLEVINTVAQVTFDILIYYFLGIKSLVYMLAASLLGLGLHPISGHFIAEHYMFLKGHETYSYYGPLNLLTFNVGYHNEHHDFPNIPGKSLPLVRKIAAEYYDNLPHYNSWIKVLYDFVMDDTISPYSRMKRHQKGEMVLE
UniProt Q9BSY9: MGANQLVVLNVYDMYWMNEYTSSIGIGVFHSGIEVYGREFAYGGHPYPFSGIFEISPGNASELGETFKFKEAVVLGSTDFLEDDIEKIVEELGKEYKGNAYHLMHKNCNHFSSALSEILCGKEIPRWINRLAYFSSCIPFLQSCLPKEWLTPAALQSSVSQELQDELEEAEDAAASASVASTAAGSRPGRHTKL

Columns and labels:
Experiment in all cases: log2 fold change, soluble protein after heating vs DMSO (PISA); higher = thermal stabilisation; K562 lysate, 10 uM; active = over 0.2 and 3.5 SD of the protein, either way, in both replicates (recomputed)
alvocidib = compound: CN1CC[C@H](c2c(O)cc(O)c3c(=O)cc(-c4ccccc4Cl)oc23)[C@H](O)C1 [alvocidib]
Outline: (§1)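 K562 pellets were dounce-homogenised in PBS pH 7.4 containing 1 mM MgCl2, and the crude extract, at 1 mg/mL protein, was exposed to 10 μM compound for 30 min. Aliquots were heated for 3 min across 48°C-58°C, pooled, brought to 0.5% NP-40 at 4°C and spun at 21,000xg for 90 min, with the supernatant taken as soluble protein. TMTpro 16plex LC-MS/MS with equalised channel sums quantified that protein. Values are log-two fold changes in thermal stability relative to solvent controls, taken from duplicates.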

defactinib = compound: CNC(=O)c1ccc(Nc2ncc(C(F)(F)F)c(NCc3nccnc3N(C)S(C)(=O)=O)n2)cc1 [defactinib]
Outline: as §1

[1] = compound: CNc1nc(-c2ccc3c(N)n[nH]c3c2)cc(N2C[C@@H](C(=O)NC3CCCCC3)CC[C@H]2C)n1
Outline: as §1

encorafenib = compound: COC(=O)N[C@@H](C)CNc1nccc(-c2cn(C(C)C)nc2-c2cc(Cl)cc(NS(C)(=O)=O)c2F)n1 [encorafenib]
Outline: as §1

[2] = compound: COC(=O)[C@H](CCSC)NC(=O)C1=C(C=C(C=C1)NC[C@H](CS)N)C2=CC=CC=C2
Outline: as §1

alisertib = compound: COc1cc(Nc2ncc3c(n2)-c2ccc(Cl)cc2C(c2c(F)cccc2OC)=NC3)ccc1C(=O)O [alisertib]
Outline: as §1

[3] = compound: COc1cc2nc(-c3cc(F)ccc3O)nc(N[C@@H]3CNC[C@H]3C(C)(C)O)c2cc1OC
Outline: as §1

gefitinib = compound: COc1cc2ncnc(Nc3ccc(F)c(Cl)c3)c2cc1OCCCN1CCOCC1 [gefitinib]
Outline: as §1

lapatinib = compound: CS(=O)(=O)CCNCc1ccc(-c2ccc3ncnc(Nc4ccc(OCc5cccc(F)c5)c(Cl)c4)c3c2)o1 [lapatinib]
Outline: as §1

pictilisib = compound: CS(=O)(=O)N1CCN(Cc2cc3nc(-c4cccc5[nH]ncc45)nc(N4CCOCC4)c3s2)CC1 [pictilisib]
Outline: as §1

[4] = compound: C[C@H](C1=CC=C(C=C1)C(=O)NC2=C3C=CNC3=NC=C2)N
Outline: as §1

duvelisib = compound: C[C@H](Nc1ncnc2nc[nH]c12)c1cc2cccc(Cl)c2c(=O)n1-c1ccccc1 [duvelisib]
Outline: as §1

gandotinib = compound: Cc1cc(Nc2cc(CN3CCOCC3)c3nc(C)c(Cc4ccc(Cl)cc4F)n3n2)n[nH]1 [gandotinib]
Outline: as §1

tozasertib = compound: Cc1cc(Nc2cc(N3CCN(C)CC3)nc(Sc3ccc(NC(=O)C4CC4)cc3)n2)n[nH]1 [tozasertib]
Outline: as §1

bafetinib = compound: Cc1ccc(NC(=O)c2ccc(CN3CC[C@H](N(C)C)C3)c(C(F)(F)F)c2)cc1Nc1nccc(-c2cncnc2)n1 [bafetinib]
Outline: as §1

[5] = compound: Cc1cccc(CC(=O)N2CCc3c2ccc(-c2cn(C)c4ncnc(N)c24)c3F)n1
Outline: as §1

Tubastatin A = compound: CN1CCc2c(c3ccccc3n2Cc2ccc(C(=O)NO)cc2)C1 [Tubastatin A]
Outline: as §1

[6] = compound: CNC(=O)C1=CC=CC=C1NC2=NC(=NC=C2Cl)NC3=C(C=C(C=C3)N4CCOCC4)OC
Outline: as §1

crizotinib = compound: C[C@@H](Oc1cc(-c2cnn(C3CCNCC3)c2)cnc1N)c1c(Cl)ccc(F)c1Cl [crizotinib]
Outline: as §1

doramapimod = compound: Cc1ccc(-n2nc(C(C)(C)C)cc2NC(=O)Nc2ccc(OCCN3CCOCC3)c3ccccc23)cc1 [doramapimod]
Outline: as §1

Target | log2 fold change (alvocidib) | log2 fold change (defactinib) | log2 fold change [1] | log2 fold change (encorafenib) | log2 fold change [2] | log2 fold change (alisertib) | log2 fold change [3] | log2 fold change (gefitinib) | log2 fold change (lapatinib) | log2 fold change (pictilisib) | log2 fold change [4] | log2 fold change (duvelisib) | log2 fold change (gandotinib) | log2 fold change (tozasertib) | log2 fold change (bafetinib) | log2 fold change [5] | log2 fold change (Tubastatin A) | log2 fold change [6] | log2 fold change (crizotinib) | log2 fold change (doramapimod)
DDX46, A0A0C4DG89 | inactive: -0.073 | inactive: 0.124 | inactive: 0.017 | inactive: 0.054 | inactive: 0.076 | inactive: 0.019 | inactive: 0.089 | inactive: 0.341 | inactive: -0.049 | inactive: 0.023 | inactive: 0.067 | inactive: 0.084 | inactive: -0.194 | inactive: -0.038 | inactive: -0.196 | inactive: -0.049 |  |  |  | 
CYP51A1 (UniProt Q16850) | inactive: -0.017 | inactive: -0.001 | inactive: 0.023 | inactive: -0.019 | inactive: 0.09 | inactive: 0.019 | inactive: 0.053 | inactive: 0 | inactive: 0.105 | inactive: 0.024 | inactive: -0.036 | inactive: -0.065 | active: 0.447 | inactive: 0 | active: 0.385 | inactive: 0.045 | inactive: 0.007 | inactive: 0.005 | inactive: 0.023 | inactive: 0.089
DDX28 (UniProt Q9NUL7) | inactive: 0.066 |  | inactive: -0.013 |  |  | inactive: -0.013 |  | inactive: -0.011 |  | inactive: -0.185 | inactive: 0.181 | inactive: 0.059 | inactive: -0.154 |  | inactive: -0.083 | inactive: 0.119 | inactive: -0.157 | inactive: -0.087 | inactive: 0.034 | inactive: 0.136
DDAH1 (UniProt O94760) | inactive: 0.015 | inactive: 0.014 | inactive: -0.002 | inactive: 0 | inactive: 0.009 |  | inactive: 0.003 |  | inactive: 0.011 |  | inactive: 0.059 | inactive: 0.186 | inactive: -0.039 | inactive: -0.044 |  | inactive: 0.196 | inactive: 0.007 | inactive: 0.037 | inactive: 0 | inactive: -0.058
DDX11 (UniProt Q96FC9) | inactive: -0.06 | inactive: -0.052 | inactive: -0.082 |  |  | inactive: -0.051 |  | inactive: 0.008 |  |  | inactive: -0.22 | inactive: 0.046 | inactive: 0.064 |  |  | inactive: 0.016 | inactive: -0.076 | inactive: 0.041 | inactive: -0.078 | inactive: 0.171
CYTH3 (UniProt O43739) | inactive: -0.043 |  |  |  |  |  | inactive: -0.06 |  | inactive: -0.189 |  | inactive: 0.039 |  | inactive: -0.046 |  |  | inactive: 0.008 | inactive: -0.111 |  |  | 
DAAM1 (UniProt Q9Y4D1) | inactive: -0.023 | inactive: 0.099 | inactive: -0.242 |  |  |  | inactive: -0.331 |  | inactive: 0.054 | inactive: 0.03 | inactive: 0.184 | inactive: -0.017 | inactive: -0.07 |  | inactive: -0.015 | inactive: 0.144 |  | inactive: -0.024 | inactive: -0.174 | inactive: -0.083
DALRD3 (UniProt Q5D0E6) | inactive: -0.016 | inactive: 0.033 |  | inactive: 0.054 | inactive: -0.391 |  | inactive: -0.004 |  | inactive: 0.021 |  | inactive: -0.131 |  | inactive: -0.087 | inactive: 0.139 |  | inactive: 0.096 |  | inactive: -0.026 |  | 
DFFA isoform 2 (UniProt O00273) | inactive: 0.079 | inactive: -0.162 | inactive: 0.082 |  |  | inactive: -0.023 | inactive: -0.023 | inactive: -0.007 | inactive: -0.069 | inactive: 0.127 | inactive: 0.094 | inactive: -0.069 | inactive: 0.008 |  | inactive: -0.039 | inactive: -0.1 | inactive: 0.096 | inactive: -0.213 | inactive: -0.056 | inactive: 0.034
DDX51 (UniProt Q8N8A6) | inactive: -0.06 |  | inactive: -0.118 |  |  | inactive: -0.068 | inactive: -0.032 | inactive: 0.049 | inactive: -0.016 |  | inactive: 0.048 | inactive: 0.087 | inactive: -0.018 |  |  | inactive: 0.051 | inactive: -0.096 | inactive: 0.097 | inactive: -0.036 | inactive: 0.129
DESI1 (UniProt Q6ICB0) | inactive: 0.058 | inactive: 0.047 | inactive: -0.178 | inactive: 0.037 | inactive: -0.19 | inactive: -0.013 |  | inactive: 0.009 |  | inactive: 0.049 | inactive: 0.08 | inactive: -0.021 | inactive: -0.054 | inactive: -0.072 | inactive: 0 | inactive: 0.012 |  |  | inactive: 0.175 | inactive: -0.068
DEGS1 (UniProt O15121) | inactive: -0.023 | inactive: 0.028 | inactive: 0.067 | inactive: 0.141 | inactive: -0.153 | inactive: -0.036 | inactive: -0.034 | inactive: 0.03 | inactive: 0.014 | inactive: 0 | inactive: 0.031 | inactive: 0.017 | inactive: -0.016 | inactive: -0.08 | inactive: -0.184 | inactive: -0.087 | inactive: 0.001 | inactive: -0.03 | inactive: 0.022 | inactive: -0.053
DESI2 (UniProt Q9BSY9) | inactive: -0.07 | inactive: 0.016 |  | inactive: -0.057 | inactive: -0.014 |  |  |  |  |  | inactive: -0.095 |  | inactive: -0.078 | inactive: -0.095 |  | inactive: 0.316 |  |  |  | 

Pulled one by one from the list above, two records:
Target | log2 fold change (alvocidib) | log2 fold change (defactinib) | log2 fold change [1] | log2 fold change (encorafenib) | log2 fold change [2] | log2 fold change (alisertib) | log2 fold change [3] | log2 fold change (gefitinib) | log2 fold change (lapatinib) | log2 fold change (pictilisib) | log2 fold change [4] | log2 fold change (duvelisib) | log2 fold change (gandotinib) | log2 fold change (tozasertib) | log2 fold change (bafetinib) | log2 fold change [5] | log2 fold change (Tubastatin A) | log2 fold change [6] | log2 fold change (crizotinib) | log2 fold change (doramapimod)
DESI1 (UniProt Q6ICB0) | inactive: 0.058 | inactive: 0.047 | inactive: -0.178 | inactive: 0.037 | inactive: -0.19 | inactive: -0.013 |  | inactive: 0.009 |  | inactive: 0.049 | inactive: 0.08 | inactive: -0.021 | inactive: -0.054 | inactive: -0.072 | inactive: 0 | inactive: 0.012 |  |  | inactive: 0.175 | inactive: -0.068
CYTH3 (UniProt O43739) | inactive: -0.043 |  |  |  |  |  | inactive: -0.06 |  | inactive: -0.189 |  | inactive: 0.039 |  | inactive: -0.046 |  |  | inactive: 0.008 | inactive: -0.111 |  |  | 
